Results on three substances are retold here after patent US9234004B2 (Agency for Science, Technology and Research, priority 2010, dated 2016).

Data set [1] can be described thus: peptide made by a vendor. Particulars: whole synthesis, analytical RP-HPLC (C-18, acetonitrile/water gradient 5% to 20%).
Data set [2] in a line: general procedure: Fmoc solid-phase peptide synthesis. Particulars: oxidative folding step, analytical RP-HPLC (C-18, acetonitrile/water gradient 5% to 20%).

HELM strings list residues between dots; [ac] is acetyl, [am] amide, other brackets name non-standard units.

In the case of “PEPTIDE1{L.L.K.K.L.L.K.K.K.C.[am]}|PEPTIDE2{L.L.K.K.L.L.K.K}$PEPTIDE1,PEPTIDE2,9:R3-8:R2$$$V2.0”, the “final HPLC purity” value in data set [1] is on record as more than 95%.

For the substance “PEPTIDE1{L.L.K.K.L.L.K.K.K.C.[am]}|PEPTIDE2{L.L.K.K.L.L.K.K}|PEPTIDE3{L.L.K.K.L.L.K.K.K.C.[am]}|PEPTIDE4{L.L.K.K.L.L.K.K}$PEPTIDE1,PEPTIDE2,9:R3-8:R2|PEPTIDE3,PEPTIDE4,9:R3-8:R2|PEPTIDE1,PEPTIDE3,10:R3-10:R3$$$V2.0”, the “final HPLC purity” value in data set [2] is reported as 95%.

For the substance “PEPTIDE1{L.L.K.K.L.L.K.K.L.L.K.K.L.L.K.K.[am]}$$$$V2.0”, in data set [1], the “final HPLC purity” value is on record as more than 95%.
